Values from PubChem BioAssay AID652272 (Drosophila RNAi Screening Center, 2013)
Test: 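Genes whose knock-down decreases or increases Hedgehog reporter output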 (primary screen). Cells: Drosophila clone 8 (Cl8) cells. Knock-down reagent: long dsRNA against Drosophila genes. Detection: 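Plate reader light from a firefly reporter under a ptc promoter fragment that responds to Hedgehog, with Renilla light as transfection reference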. Direction: firefly Hh reporter signal: higher = more ptc reporter light; Renilla reference signal: higher = more Renilla control light. Active means: 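Called a hit if the two-replicate mean z-score lies below -2 or above +3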. Meaning of the calls: active = hit: reporter lowered or raised; inactive = not a hit.
The screen tested about 21,000 reagents; this is an unselected part of those with a known target gene and a result. Over the whole deposit, 503 (2.4%) were called active. 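Raw plate light values, not normalised; calls rest on replicate z-scores that were not deposited; hits include reporter decreases as well as increases.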 The record does not give: the amount of reagent, the time to read-out.

For ppk7 (GeneID 33886) [SID104183028], what does the deposit list?
firefly Hh reporter signal, replicate 1: 1.21e5; firefly Hh reporter signal, replicate 2: 55474; Renilla reference signal, replicate 1: 2589; Renilla reference signal, replicate 2: 5139; activity call: inactive

For up (GeneID 32314) [SID104200174], how do the results read?
firefly Hh reporter signal, replicate 1: 52521; firefly Hh reporter signal, replicate 2: 50197; Renilla reference signal, replicate 1: 1296; Renilla reference signal, replicate 2: 1140; activity call: inactive

With CG13284 (GeneID 35021) [SID104182048], what was measured?
firefly Hh reporter signal, replicate 1: 1.03e5; firefly Hh reporter signal, replicate 2: 44881; Renilla reference signal, replicate 1: 2640; Renilla reference signal, replicate 2: 4801; activity call: inactive

For CG4617 (GeneID 31657) [SID104198169], how do the results read?
firefly Hh reporter signal, replicate 1: 60857; firefly Hh reporter signal, replicate 2: 60329; Renilla reference signal, replicate 1: 1652; Renilla reference signal, replicate 2: 1579; activity call: inactive

With Cdc27 (GeneID 38798) [SID104190904], what does the deposit list?
firefly Hh reporter signal, replicate 1: 86628; firefly Hh reporter signal, replicate 2: 51824; Renilla reference signal, replicate 1: 4065; Renilla reference signal, replicate 2: 2348; activity call: inactive

Which result is listed for AIF (GeneID 33390) [SID104180488]?
firefly Hh reporter signal, replicate 1: 1.12e5; firefly Hh reporter signal, replicate 2: 66668; Renilla reference signal, replicate 1: 4809; Renilla reference signal, replicate 2: 2726; activity call: inactive

Which result is listed for Rab40 (GeneID 32195) [SID104199612]?
firefly Hh reporter signal, replicate 1: 1.19e5; firefly Hh reporter signal, replicate 2: 2.63e5; Renilla reference signal, replicate 1: 4139; Renilla reference signal, replicate 2: 10810; activity call: inactive

With CG7289 (GeneID 33372) [SID104180489], what does the deposit list?
firefly Hh reporter signal, replicate 1: 1.12e5; firefly Hh reporter signal, replicate 2: 1.19e5; Renilla reference signal, replicate 1: 4211; Renilla reference signal, replicate 2: 4544; activity call: inactive

For CG12307 (GeneID 34584) [SID104181951], what does the deposit list?
firefly Hh reporter signal, replicate 1: 75821; firefly Hh reporter signal, replicate 2: 74585; Renilla reference signal, replicate 1: 1312; Renilla reference signal, replicate 2: 6135; activity call: inactive

How did the screen score CG9265 (GeneID 35369) [SID104182970]?
firefly Hh reporter signal, replicate 1: 91384; firefly Hh reporter signal, replicate 2: 72387; Renilla reference signal, replicate 1: 2541; Renilla reference signal, replicate 2: 6640; activity call: inactive

Which result is listed for CG9265 (GeneID 35369) [SID104182971]?
firefly Hh reporter signal, replicate 1: 98096; firefly Hh reporter signal, replicate 2: 50995; Renilla reference signal, replicate 1: 2615; Renilla reference signal, replicate 2: 4485; activity call: inactive

What did the screen give for lin (GeneID 45325) [SID104187436]?
firefly Hh reporter signal, replicate 1: 1.72e5; firefly Hh reporter signal, replicate 2: 67941; Renilla reference signal, replicate 1: 4560; Renilla reference signal, replicate 2: 6667; activity call: inactive

With CG42615 (GeneID 8674036) [SID104184913], how do the results read?
firefly Hh reporter signal, replicate 1: 1.48e5; firefly Hh reporter signal, replicate 2: 2.84e5; Renilla reference signal, replicate 1: 3655; Renilla reference signal, replicate 2: 11916; activity call: inactive

With VhaM9.7-b (GeneID 40389) [SID104191633], what was measured?
firefly Hh reporter signal, replicate 1: 82213; firefly Hh reporter signal, replicate 2: 63973; Renilla reference signal, replicate 1: 2137; Renilla reference signal, replicate 2: 1764; activity call: inactive

How did the screen score Spn27A (GeneID 45815) [SID104183400]?
firefly Hh reporter signal, replicate 1: 92037; firefly Hh reporter signal, replicate 2: 41056; Renilla reference signal, replicate 1: 2461; Renilla reference signal, replicate 2: 4203; activity call: inactive

With kay (GeneID 3772082) [SID104193754], how do the results read?
firefly Hh reporter signal, replicate 1: 56121; firefly Hh reporter signal, replicate 2: 2.58e5; Renilla reference signal, replicate 1: 12940; Renilla reference signal, replicate 2: 6010; activity call: inactive

Which result is listed for kay (GeneID 3772082) [SID104194840]?
firefly Hh reporter signal, replicate 1: 33080; firefly Hh reporter signal, replicate 2: 24043; Renilla reference signal, replicate 1: 904; Renilla reference signal, replicate 2: 860; activity call: inactive

With kay (GeneID 3772082) [SID104196769], what was measured?
firefly Hh reporter signal, replicate 1: 54322; firefly Hh reporter signal, replicate 2: 46368; Renilla reference signal, replicate 1: 1574; Renilla reference signal, replicate 2: 1463; activity call: inactive

With Pgm1 (GeneID 44010) [SID104190282], how do the results read?
firefly Hh reporter signal, replicate 1: 60801; firefly Hh reporter signal, replicate 2: 56748; Renilla reference signal, replicate 1: 2301; Renilla reference signal, replicate 2: 2488; activity call: inactive

With wol (GeneID 34134) [SID104182869], what does the deposit list?
firefly Hh reporter signal, replicate 1: 86800; firefly Hh reporter signal, replicate 2: 92017; Renilla reference signal, replicate 1: 3500; Renilla reference signal, replicate 2: 3968; activity call: inactive

What is on record for Obp56d (GeneID 37266) [SID104185856]?
firefly Hh reporter signal, replicate 1: 73816; firefly Hh reporter signal, replicate 2: 52224; Renilla reference signal, replicate 1: 2176; Renilla reference signal, replicate 2: 4016; activity call: inactive
